Measurements published in publication PMC3206849.
No constants are given. Whether binding was seen depends on the method and setting. In cells and extracts the contact can be indirect. Some entries that bind do so weakly or less than the wild type.

Protein sequences, listed by entry. Tags and fused reporters are not part of them. Lines headed by an entry give the natural chain unless they say otherwise; changes in a name come on top. Residues count along the entry.
UniProt P29391: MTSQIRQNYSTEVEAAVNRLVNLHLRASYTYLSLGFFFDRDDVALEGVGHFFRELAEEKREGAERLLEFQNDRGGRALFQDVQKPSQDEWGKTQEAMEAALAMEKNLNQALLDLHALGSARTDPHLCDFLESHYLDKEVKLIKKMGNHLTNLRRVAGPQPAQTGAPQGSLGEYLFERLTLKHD
UniProt P28652: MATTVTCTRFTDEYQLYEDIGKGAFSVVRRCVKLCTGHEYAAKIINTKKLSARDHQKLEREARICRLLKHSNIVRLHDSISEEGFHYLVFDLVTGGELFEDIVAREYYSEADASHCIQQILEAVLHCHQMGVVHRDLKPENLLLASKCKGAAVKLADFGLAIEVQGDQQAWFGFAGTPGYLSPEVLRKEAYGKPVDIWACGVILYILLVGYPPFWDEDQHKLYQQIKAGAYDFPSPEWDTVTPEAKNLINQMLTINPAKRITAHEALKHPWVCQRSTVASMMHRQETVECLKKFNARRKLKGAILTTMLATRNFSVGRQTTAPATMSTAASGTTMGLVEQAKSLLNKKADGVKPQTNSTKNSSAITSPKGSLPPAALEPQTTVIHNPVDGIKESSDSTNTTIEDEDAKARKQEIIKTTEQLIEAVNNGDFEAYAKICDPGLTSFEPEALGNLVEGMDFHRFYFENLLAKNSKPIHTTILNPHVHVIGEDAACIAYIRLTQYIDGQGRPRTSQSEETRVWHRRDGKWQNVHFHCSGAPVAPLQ
UniProt Q6PHZ2: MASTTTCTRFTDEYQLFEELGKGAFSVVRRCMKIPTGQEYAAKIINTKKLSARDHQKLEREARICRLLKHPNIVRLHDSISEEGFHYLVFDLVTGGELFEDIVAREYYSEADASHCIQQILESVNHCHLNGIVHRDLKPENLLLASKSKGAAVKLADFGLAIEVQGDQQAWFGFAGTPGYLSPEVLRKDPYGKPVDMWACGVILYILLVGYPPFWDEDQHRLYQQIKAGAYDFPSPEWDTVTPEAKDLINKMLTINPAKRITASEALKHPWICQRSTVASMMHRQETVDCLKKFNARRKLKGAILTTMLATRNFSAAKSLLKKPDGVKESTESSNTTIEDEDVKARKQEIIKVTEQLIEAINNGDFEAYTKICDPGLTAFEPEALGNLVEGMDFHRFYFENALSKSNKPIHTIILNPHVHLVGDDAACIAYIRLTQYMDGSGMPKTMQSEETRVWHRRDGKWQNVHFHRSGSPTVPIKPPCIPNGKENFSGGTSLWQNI
UniProt Q04447: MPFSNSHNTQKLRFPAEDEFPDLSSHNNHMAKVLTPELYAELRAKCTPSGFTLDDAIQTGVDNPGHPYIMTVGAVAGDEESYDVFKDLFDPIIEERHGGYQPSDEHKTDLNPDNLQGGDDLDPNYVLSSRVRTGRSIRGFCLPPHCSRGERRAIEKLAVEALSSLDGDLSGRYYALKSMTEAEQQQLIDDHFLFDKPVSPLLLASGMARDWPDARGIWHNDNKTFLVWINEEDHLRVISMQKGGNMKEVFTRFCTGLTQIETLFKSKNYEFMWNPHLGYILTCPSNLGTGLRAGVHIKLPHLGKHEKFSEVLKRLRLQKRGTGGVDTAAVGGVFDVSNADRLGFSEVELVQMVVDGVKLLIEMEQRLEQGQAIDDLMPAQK
UniProt Q91ZX7, residues 20-4545: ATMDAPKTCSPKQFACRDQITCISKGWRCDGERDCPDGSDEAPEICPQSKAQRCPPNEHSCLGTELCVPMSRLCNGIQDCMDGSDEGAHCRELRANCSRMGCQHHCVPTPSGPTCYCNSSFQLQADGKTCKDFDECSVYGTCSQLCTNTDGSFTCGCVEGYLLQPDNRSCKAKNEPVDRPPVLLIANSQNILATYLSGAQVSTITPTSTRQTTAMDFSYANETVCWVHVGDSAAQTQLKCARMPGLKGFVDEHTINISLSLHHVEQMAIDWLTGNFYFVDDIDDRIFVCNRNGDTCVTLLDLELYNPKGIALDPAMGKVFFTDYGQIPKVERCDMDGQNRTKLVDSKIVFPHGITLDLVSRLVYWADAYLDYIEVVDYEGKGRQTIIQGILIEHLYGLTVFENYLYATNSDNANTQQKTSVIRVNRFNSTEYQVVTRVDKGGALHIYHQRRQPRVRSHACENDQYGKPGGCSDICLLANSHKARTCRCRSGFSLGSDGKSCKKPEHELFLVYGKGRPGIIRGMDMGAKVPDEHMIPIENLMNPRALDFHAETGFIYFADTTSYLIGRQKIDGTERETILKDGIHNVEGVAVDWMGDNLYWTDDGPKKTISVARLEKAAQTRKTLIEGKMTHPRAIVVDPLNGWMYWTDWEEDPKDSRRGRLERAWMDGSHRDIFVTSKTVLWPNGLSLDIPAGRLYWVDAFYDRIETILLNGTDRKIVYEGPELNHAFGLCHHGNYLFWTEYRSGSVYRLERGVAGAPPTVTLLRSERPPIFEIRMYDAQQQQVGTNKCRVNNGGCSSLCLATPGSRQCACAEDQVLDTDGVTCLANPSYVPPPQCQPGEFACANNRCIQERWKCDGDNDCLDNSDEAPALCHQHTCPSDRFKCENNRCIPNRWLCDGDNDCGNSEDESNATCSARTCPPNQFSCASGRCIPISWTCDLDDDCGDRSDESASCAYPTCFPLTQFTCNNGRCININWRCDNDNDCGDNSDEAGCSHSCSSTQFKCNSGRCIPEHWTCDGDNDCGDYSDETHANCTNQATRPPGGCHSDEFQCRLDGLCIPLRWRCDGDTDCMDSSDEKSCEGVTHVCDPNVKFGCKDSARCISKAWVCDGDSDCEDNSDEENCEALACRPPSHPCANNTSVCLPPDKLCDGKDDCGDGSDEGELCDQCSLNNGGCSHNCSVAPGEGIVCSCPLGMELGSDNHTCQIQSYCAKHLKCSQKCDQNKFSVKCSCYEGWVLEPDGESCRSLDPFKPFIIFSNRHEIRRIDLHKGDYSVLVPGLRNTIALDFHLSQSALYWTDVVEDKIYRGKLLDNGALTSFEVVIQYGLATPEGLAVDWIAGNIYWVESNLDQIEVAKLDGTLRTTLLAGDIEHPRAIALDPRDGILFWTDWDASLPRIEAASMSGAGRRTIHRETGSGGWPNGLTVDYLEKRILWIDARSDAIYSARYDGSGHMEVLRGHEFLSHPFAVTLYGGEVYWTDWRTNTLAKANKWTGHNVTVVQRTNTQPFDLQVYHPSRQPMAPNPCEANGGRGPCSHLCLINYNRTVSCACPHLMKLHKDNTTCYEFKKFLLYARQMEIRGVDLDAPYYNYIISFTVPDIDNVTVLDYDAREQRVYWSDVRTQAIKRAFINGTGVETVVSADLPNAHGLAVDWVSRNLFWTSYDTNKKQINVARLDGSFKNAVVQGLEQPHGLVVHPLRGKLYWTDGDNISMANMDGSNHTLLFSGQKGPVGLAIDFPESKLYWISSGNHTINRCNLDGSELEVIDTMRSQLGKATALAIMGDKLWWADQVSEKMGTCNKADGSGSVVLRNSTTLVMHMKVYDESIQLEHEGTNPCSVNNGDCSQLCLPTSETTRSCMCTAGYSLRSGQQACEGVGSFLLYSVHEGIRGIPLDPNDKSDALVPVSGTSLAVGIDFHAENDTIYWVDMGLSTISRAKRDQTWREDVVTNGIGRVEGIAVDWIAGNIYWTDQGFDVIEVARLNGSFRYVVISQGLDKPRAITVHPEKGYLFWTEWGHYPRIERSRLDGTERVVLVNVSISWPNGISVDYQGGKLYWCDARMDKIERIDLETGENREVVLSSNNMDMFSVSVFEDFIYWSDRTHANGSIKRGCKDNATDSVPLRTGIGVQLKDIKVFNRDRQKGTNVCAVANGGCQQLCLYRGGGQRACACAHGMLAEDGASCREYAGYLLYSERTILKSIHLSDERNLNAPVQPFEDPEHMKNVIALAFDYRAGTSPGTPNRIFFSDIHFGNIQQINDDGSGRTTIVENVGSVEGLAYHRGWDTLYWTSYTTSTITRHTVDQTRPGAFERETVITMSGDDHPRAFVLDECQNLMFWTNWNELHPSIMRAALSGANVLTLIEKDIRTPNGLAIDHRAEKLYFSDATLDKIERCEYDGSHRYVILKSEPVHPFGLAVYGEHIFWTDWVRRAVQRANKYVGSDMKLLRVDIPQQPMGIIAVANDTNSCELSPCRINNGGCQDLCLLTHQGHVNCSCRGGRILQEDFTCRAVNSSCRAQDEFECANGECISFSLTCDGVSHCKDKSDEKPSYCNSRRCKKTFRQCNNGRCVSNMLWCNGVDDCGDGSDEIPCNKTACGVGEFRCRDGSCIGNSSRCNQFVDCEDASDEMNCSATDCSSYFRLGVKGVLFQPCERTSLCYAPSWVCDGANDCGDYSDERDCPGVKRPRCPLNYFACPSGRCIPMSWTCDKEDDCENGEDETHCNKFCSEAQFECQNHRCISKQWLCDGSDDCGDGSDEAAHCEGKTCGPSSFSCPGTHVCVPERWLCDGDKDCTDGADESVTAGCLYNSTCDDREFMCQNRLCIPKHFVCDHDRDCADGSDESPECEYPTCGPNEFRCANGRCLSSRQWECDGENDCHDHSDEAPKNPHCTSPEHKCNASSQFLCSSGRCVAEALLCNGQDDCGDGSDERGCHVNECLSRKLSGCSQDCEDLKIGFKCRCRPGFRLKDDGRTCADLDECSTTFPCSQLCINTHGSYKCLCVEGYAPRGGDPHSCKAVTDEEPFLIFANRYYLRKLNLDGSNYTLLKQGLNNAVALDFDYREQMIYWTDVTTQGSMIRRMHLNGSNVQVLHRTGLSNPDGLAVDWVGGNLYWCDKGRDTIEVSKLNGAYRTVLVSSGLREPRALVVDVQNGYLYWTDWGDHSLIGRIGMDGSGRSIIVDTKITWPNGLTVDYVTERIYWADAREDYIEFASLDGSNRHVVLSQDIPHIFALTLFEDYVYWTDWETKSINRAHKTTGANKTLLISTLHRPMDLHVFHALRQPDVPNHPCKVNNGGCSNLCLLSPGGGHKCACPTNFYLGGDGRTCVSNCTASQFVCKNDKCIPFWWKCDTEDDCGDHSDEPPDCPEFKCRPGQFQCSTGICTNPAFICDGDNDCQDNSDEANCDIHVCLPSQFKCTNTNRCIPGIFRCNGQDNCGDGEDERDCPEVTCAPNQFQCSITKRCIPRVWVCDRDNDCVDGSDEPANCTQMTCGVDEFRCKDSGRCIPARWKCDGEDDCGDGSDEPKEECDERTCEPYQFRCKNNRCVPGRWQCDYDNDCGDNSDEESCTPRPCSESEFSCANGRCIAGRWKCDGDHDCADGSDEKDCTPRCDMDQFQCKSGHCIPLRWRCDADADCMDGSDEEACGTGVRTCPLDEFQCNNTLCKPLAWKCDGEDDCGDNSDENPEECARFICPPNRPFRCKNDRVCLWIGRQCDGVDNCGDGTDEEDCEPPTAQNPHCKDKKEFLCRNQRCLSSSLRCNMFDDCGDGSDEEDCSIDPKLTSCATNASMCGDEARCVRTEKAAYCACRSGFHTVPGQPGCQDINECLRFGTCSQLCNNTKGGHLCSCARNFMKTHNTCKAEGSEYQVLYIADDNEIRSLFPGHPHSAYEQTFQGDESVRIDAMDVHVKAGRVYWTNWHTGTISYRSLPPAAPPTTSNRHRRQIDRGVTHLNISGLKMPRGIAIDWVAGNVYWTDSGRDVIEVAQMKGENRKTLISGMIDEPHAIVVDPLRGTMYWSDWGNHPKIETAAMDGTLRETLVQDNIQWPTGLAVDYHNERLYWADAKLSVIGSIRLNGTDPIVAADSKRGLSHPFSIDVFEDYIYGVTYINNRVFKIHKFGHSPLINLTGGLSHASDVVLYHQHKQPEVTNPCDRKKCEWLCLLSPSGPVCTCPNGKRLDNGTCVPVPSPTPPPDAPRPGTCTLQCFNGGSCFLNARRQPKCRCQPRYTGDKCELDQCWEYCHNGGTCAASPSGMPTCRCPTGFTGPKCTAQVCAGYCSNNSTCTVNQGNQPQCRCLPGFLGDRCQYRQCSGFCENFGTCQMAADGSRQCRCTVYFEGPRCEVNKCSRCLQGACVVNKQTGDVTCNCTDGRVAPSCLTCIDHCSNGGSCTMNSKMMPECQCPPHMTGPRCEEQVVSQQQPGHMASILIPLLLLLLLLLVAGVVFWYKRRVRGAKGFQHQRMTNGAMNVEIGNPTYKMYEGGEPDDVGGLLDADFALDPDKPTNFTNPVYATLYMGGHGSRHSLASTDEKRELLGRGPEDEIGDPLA
UniProt P10922: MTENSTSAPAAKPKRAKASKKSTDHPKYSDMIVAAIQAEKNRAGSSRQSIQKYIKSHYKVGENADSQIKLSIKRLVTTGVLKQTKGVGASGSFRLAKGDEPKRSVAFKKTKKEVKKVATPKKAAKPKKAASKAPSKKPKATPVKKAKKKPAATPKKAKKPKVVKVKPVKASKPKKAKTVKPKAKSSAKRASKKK

biological target: Major prion protein, disease-associated isoform PrP^Sc in scrapie-associated fibrils (SAF) (mouse (endogenous in brain)) (UniProt P04925); test: co-sedimentation

Molecule | binding
Ferritin (light chain 1) (from UniProt P29391 1-183) | no binding
Calcium/calmodulin dependent kinase type II β-chain (from UniProt P28652 1-542) (enzyme) | no binding
Isoform Alpha-2 of Guanine nucleotide-binding protein G(o) subunit alpha (from UniProt P18872-2 1-354) | binds
Na+/K+ ATPase subunit α2 (from UniProt Q6PIE5 1-1020) | binds
Calcium/calmodulin dependent kinase type II δ-chain (from UniProt Q6PHZ2 1-499) (enzyme) | no binding
Creatine kinase B-type (from UniProt Q04447 1-381) | binds
Pro low-density lipoprotein receptor-related protein 1 (from UniProt Q91ZX7 20-4545) | binds
Serine arginine repetitive matrix protein 2 (from UniProt Q8BTI8 1-2703) | binds
Vesicle-fusing ATPase (from UniProt P46460 1-744) | binds
Histone H1.0 (from UniProt P10922 1-194) | binds
Isoform CNPII of 2′,3′-cyclic-nucleotide 3′-phosphodiesterase (enzyme, UniProt P16330-1 1-420) MNTSFTRKSHTFLPKLFFRKMSSSGAKEKPELQFPFLQDEDTVATLHECKTLFILRGLPGSGKSTLARLILEKYHDGTKMVSADAYKIIPGSRADFSEAYKRLDEDLAGYCRRDIRVLVLDDTNHERERLDQLFEMADQYQYQVVLVEPKTAWRLDCAQLKEKNQWQLSADDLKKLKPGLEKDFLPLYFGWFLTKKSSETLRKAGQVFLEELGNHKAFKKELRHFISGDEPKEKLELVSYFGKRPPGVLHCTTKFCDYGKAAGAEEYAQQEVVKRSYGKAFKLSISALFVTPKTAGAQVVLTDQELQLWPSDLDKPSASEGLPPGSRAHVTLGCAADVQPVQTGLDLLDILQQVKGGSQGEAVGELPRGKLYSLGKGRWMLSLTKKMEVKAIFTGYYGKGKPVPIHGSRKGGAMQICTII | binds
TBC1 domain family, member 10b (protein, UniProt Q8BHL3 1-798) METGPAPLVAPPRRHGAPAAPSPPPRGSRAGSHLVVEPGPPVTTATSAPVELVAPGEARPACVPGSSQTSASTPTTATSSTVVMLTLEASPEAAKTQEFPAPAAETGAETSVALALGTDTQKTEEVRASPVPGPGTPTRTPSRMAPGALTAKPPLAPKPGTTVASGVTARGGVGQVAGGHEAATSASAGSVPEDPSGPVTGPPGTCEAPAPTPVAVVTVTPAPEPVENFQDLGSTSSLGPGISGPRGQAPDTLSYLDSVSLMSGTLESLPDDVSSMGSDSEINGMALRKTDKYGFLGGSQYSGSLESSIPVDVARQRELKWLEMFSNWDKWLSRRFQKVKLRCRKGIPSSLRAKAWQYLSNSKELLEQNPGKFEELERAAGDPKWLDVIEKDLHRQFPFHEMFAARGGHGQQDLYRILKAYTIYRPDEGYCQAQAPVAAVLLMHMPAEQAFWCLVQICDKYLPGYYSAGLEAIQLDGEIFFALLRRVSPLAHRHLRRQRIDPVLYMTEWFMCIFARTLPWASVLRVWDMFFCEGVKIIFRVALVLLRHTLGSVEKLRSCQGMYETMEQLRNLPQQCMQEDFLVHEVTNLPVTEAWIERENAAQLKKWRETRGELQYRPSRRLHGSRAIHEERRRQQPPLGPSSSLLSLPSLKSRGSRAVGGAPSPPPPVRRASAGPVPGAVVIAEGLHPSLPSPTGNSTPLGTSKEIRRQEKERQKQEKDREKERQRQEKERERQEKERQKWEKEQEKEQQKQEKERQKLEKKGQGRKLSLRRRADGPPASHDGGDRSAAEARQDAYF | binds
Apolipoprotein E (protein, UniProt P08226 19-311) EGEPEVTDQLEWQSNQPWEQALNRFWDYLRWVQTLSDQVQEELQSSQVTQELTALMEDTMTEVKAYKKELEEQLGPVAEETRARLGKEVQAAQARLGADMEDLRNRLGQYRNEVHTMLGQSTEEIRARLSTHLRKMRKRLMRDAEDLQKRLAVYKAGAREGAERGVSAIRERLGPLVEQGRQRTANLGAGAAQPLRDRAQAFGDRIRGRLEEVGNQARDRLEEVREHMEEVRSKMEEQTQQIRLQAEIFQARLKGWFEPIVEDMHRQWANLMEKIQASVATNPIITPVAQENQ | binds
Isoform 1 of Dynamin 1 (protein, UniProt P39053 1-867) MGNRGMEDLIPLVNRLQDAFSAIGQNADLDLPQIAVVGGQSAGKSSVLENFVGRDFLPRGSGIVTRRPLVLQLVNSTTEYAEFLHCKGKKFTDFEEVRLEIEAETDRVTGTNKGISPVPINLRVYSPHVLNLTLVDLPGMTKVPVGDQPPDIEFQIRDMLMQFVTKENCLILAVSPANSDLANSDALKIAKEVDPQGQRTIGVITKLDLMDEGTDARDVLENKLLPLRRGYIGVVNRSQKDIDGKKDITAALAAERKFFLSHPSYRHLADRMGTPYLQKVLNQQLTNHIRDTLPGLRNKLQSQLLSIEKEVDEYKNFRPDDPARKTKALLQMVQQFAVDFEKRIEGSGDQIDTYELSGGARINRIFHERFPFELVKMEFDEKELRREISYAIKNIHGIRTGLFTPDMAFETIVKKQVKKIREPCLKCVDMVISELISTVRQCTKKLQQYPRLREEMERIVTTHIREREGRTKEQVMLLIDIELAYMNTNHEDFIGFANAQQRSNQMNKKKTSGNQDEILVIRKGWLTINNIGIMKGGSKEYWFVLTAENLSWYKDDEEKEKKYMLSVDNLKLRDVEKGFMSSKHIFALFNTEQRNVYKDYRQLELACETQEEVDSWKASFLRAGVYPERVGDKEKASETEENGSDSFMHSMDPQLERQVETIRNLVDSYMAIVNKTVRDLMPKTIMHLMINNTKEFIFSELLANLYSCGDQNTLMEESAEQAQRRDEMLRMYHALKEALSIIGDINTTTVSTPMPPPVDDSWLQVQSVPAGRRSPTSSPTPQRRAPAVPPARPGSRGPAPGPPPAGSALGGAPPVPSRPGASPDPFGPPPQVPSRPNRAPPGVPSLGAWRLNSPQGKHENRAGKARL | binds
